These are yes or no findings as the source states them, for the method shown. Binding seen in cells or lysates may run through a third protein. A yes stands for co-enrichment or nearness to the bait. Other partners may have been found. One block for each molecule: values may come before it.
How the values were obtained:
Sall4^K5A = Sall4^K5A (UniProt Q8BX22); assay: affinity purification with mass spectrometry; WT and K5A mutated SALL4 pull down followed by MS, triplicates; antibody not stated
SALL4 = SALL4 (UniProt Q8BX22); assay: as above

The chains behind the UniProt entries cited, without tags or fusion partners. Where a name states a change or a piece, a line headed by the entry shows the natural chain unless it says otherwise.
UniProt Q8BX22: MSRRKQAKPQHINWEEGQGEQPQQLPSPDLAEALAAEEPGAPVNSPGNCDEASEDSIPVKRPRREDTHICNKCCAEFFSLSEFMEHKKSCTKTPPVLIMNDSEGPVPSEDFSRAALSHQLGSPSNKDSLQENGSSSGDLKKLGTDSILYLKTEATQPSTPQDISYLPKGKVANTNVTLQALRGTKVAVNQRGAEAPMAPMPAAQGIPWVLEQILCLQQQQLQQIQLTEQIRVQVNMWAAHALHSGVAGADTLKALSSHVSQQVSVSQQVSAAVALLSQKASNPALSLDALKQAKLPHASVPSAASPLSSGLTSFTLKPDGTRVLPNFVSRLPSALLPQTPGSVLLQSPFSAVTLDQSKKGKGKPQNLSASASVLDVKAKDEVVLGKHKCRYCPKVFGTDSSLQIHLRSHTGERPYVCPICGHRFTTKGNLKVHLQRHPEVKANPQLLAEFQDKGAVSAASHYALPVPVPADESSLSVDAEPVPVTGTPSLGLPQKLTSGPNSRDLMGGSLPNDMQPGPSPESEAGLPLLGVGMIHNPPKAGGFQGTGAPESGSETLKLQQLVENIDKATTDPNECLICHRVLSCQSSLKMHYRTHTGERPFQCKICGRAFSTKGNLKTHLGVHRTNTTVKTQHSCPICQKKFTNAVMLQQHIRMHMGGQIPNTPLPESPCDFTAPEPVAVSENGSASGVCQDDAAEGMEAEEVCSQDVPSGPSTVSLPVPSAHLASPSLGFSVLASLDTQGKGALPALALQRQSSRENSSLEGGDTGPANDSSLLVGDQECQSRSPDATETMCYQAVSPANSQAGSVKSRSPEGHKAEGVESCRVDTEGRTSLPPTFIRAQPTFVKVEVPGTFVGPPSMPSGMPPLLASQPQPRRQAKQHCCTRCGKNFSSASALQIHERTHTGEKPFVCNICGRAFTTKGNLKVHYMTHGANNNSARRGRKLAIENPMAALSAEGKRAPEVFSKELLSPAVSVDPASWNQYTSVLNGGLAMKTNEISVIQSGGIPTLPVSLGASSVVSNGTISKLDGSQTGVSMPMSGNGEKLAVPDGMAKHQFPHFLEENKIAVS
UniProt O35343: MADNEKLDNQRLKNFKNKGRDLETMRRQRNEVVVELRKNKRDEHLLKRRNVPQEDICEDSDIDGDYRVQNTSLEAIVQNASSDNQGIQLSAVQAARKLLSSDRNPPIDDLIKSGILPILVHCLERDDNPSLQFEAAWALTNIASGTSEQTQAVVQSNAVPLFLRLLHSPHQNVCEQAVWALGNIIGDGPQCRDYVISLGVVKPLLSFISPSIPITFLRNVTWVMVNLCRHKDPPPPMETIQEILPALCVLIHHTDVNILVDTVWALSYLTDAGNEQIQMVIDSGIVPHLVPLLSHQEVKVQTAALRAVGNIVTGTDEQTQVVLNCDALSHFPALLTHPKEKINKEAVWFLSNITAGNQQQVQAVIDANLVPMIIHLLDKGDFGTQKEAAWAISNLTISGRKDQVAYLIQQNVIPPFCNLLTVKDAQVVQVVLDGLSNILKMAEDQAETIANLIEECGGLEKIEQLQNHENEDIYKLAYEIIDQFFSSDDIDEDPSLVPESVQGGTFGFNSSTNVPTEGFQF
UniProt P11103: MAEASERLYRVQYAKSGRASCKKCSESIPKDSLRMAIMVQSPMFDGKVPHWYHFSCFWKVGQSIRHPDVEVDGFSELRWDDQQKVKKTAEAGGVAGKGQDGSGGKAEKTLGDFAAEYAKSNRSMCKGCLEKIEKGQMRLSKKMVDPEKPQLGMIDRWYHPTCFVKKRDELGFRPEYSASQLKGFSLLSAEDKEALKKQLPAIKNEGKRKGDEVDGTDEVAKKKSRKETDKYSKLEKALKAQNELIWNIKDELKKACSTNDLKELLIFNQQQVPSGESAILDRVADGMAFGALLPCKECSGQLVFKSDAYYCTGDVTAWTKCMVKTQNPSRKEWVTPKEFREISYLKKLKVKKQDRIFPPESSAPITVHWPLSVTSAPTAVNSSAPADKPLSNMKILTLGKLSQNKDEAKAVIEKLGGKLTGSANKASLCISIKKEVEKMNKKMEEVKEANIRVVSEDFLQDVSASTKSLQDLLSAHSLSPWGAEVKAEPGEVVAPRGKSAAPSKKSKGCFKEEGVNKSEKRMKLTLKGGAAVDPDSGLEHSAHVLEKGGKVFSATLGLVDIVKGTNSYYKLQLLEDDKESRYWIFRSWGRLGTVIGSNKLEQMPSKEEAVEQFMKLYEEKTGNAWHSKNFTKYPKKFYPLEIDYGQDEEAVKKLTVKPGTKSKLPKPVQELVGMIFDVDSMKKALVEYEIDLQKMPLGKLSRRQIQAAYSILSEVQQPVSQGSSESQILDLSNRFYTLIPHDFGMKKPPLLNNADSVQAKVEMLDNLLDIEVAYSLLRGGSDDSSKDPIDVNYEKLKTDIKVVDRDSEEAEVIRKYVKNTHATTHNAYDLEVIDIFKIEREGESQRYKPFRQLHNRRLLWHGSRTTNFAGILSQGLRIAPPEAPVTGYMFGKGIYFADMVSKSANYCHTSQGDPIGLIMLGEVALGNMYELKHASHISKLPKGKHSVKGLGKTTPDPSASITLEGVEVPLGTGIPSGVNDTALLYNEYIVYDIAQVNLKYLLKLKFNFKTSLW

binding (Sall4^K5A): binds | binding (SALL4): binds
Molecule: Kpna4 (from UniProt O35343 1-521)

binding (Sall4^K5A): binds | binding (SALL4): binds
Molecule: Parp1 (from UniProt P11103 1-1013)

binding (Sall4^K5A): binds | binding (SALL4): binds
B1: Lig3 (protein, UniProt P97386 1-1015)
chain: MTLAFKILFPRNLCALGRKELCLFPEQNRWAAISQFSQWSETNLLGGCCLLQRRKPVLALQRGHLRPRATHLTFWPGSHVGLCTGPCAMAEQRFCVDYAKRGTAGCKKCKEKIVKGVCRIGKVVPNPFSESGGDMKEWYHIKCMFEKLERARATTKKIEDLTELEGWEELEDNEKEQISQHIADLSSKAAATPKKKAAVQAKLTTTGQVTSPVKGASFITSTNPRKFSGFSAAKPNNSEQAPSSPAPGTSLSASKCDPKHKDCLLREFRKLCAMVAENPSYNTKTQIIHDFLQKGSTGGFSDGFHGDVYLTVKLLLPGVIKSVYNLNDKQIVKLFSRIFNCNPDDMARDLEQGDVSETIRIFFEQSKSFPPAAKSLLTIQEVDAFLLHLSKLTKEDEQQQALQDIASRCTANDLKCIIRLIKHDLKMNSGAKHVLDALDPNAYEAFKASRNLQDVVERVLHNEQEVEKDPGRRRALRVQASLMTPVQPMLAEACKSIEYAMKKCPNGMFSEIKYDGERVQVHKKGDHFSYFSRSLKPVLPHKVAHFKDYIPKAFPGGQSMILDSEVLLIDNNTGKPLPFGTLGVHKKAAFQDANVCLFVFDCIYFNDVSLMDRPLCERRKFLHDNMVEIRNRIMFSEMKQVTKASDLADMINRVIREGLEGLVLKDVKGTYEPGKRHWLKVKKDYLNEGAMADTADLVVLGAFYGQGSKGGMMSIFLMGCYDPDSQKWCTVTKCAGGHDDATLARLQKELVMVKISKDPSKIPSWLKINKIYYPDFIVPDPKKAAVWEITGAEFSRSEAHTADGISIRFPRCTRIRDDKDWKSATNLPQLKELYQLSKDKADFAVVAGDEASPTTGGSSGENEGTAGSAGPCKGPPSKSSASAKTTEQKLNSPSSRGGIKPIPKHSPMKPGEKLAVKSSPVKVGMKRKATDETPCLKKVLLDVFTGVRLYLPPSTPDFKRLKRYFVAFDGDLVQEFDMGSATHVLGNREKNTDAQLVSSEWIWACIRKRRLIAPC

binding (Sall4^K5A): binds | binding (SALL4): binds
B2: Hmbox1 (protein, UniProt Q8BJA3 1-419)
chain: MLSSFPVVLLETMSHYTDEPRFTIEQIDLLQRLRRTGMTKHEILHALETLDRLDQEHSDKFGRRSSYGGSSYGNSTNNVPASSSTATASTQTQHSGMSPSPSNSYDTSPLPCTTNQNGRENNDRLSTSNGKMSPSRYHANSMGQRSYSFEASEEDLDVDDKVEELMRRDSSVIKEEIKAFLANRRISQAVVAQVTGISQSRISHWLLQQGSDLSEQKKRAFYRWYQLEKTNPGATLSMRPAPIPIEDPEWRQTPPPVSATPGTFRLRRGSRFTWRKECLAVMESYFNENQYPDEAKREEIANACNAVIQKPGKKLSDLERVTSLKVYNWFANRRKEIKRRANIAAILESHGIDVQSPGGHSNSDDVDGNDYSEQDDSTSHSDHQDPISLAVEMAAVNHTILALARQGANEIKTEALDDD

binding (Sall4^K5A): binds | binding (SALL4): binds
B3: Tfam (protein, UniProt P40630 43-243)
chain: SSMGSYPKKPMSSYLRFSTEQLPKFKAKHPDAKLSELVRKIAALWRELPEAEKKVYEADFKAEWKAYKEAVSKYKEQLTPSQLMGMEKEARQRRLKKKALVKRRELILLGKPKRPRSAYNIYVSESFQEAKDDSAQGKLKLVNEAWKNLSPEEKQAYIQLAKDDRIRYDNEMKSWEEQMAEVGRSDLIRRSVKRSGDISEH
